These are yes or no findings as the source states them, for the method shown. For some assays here: Binding seen in cells or lysates may run through a third protein. Some binding calls cover weakened binding; strength is not graded here.
Key:
[1] = molecular target: Estrogen Receptor α (ERα), in vitro translated and [35S]methionine-labeled (UniProt P03372); assay: yeast two-hybrid screening
[2] = molecular target: Estrogen Receptor α (ERα), in vitro translated and [35S]methionine-labeled (UniProt P03372); assay: GST pull-down: GST-EDG1 on Sepharose with in vitro translated [35S]-labeled ERα in the presence of E2

Protein sequences, listed by entry. Tags and fused reporters are not part of them. Lines headed by an entry give the natural chain unless they say otherwise; changes in a name come on top.
UniProt P03372: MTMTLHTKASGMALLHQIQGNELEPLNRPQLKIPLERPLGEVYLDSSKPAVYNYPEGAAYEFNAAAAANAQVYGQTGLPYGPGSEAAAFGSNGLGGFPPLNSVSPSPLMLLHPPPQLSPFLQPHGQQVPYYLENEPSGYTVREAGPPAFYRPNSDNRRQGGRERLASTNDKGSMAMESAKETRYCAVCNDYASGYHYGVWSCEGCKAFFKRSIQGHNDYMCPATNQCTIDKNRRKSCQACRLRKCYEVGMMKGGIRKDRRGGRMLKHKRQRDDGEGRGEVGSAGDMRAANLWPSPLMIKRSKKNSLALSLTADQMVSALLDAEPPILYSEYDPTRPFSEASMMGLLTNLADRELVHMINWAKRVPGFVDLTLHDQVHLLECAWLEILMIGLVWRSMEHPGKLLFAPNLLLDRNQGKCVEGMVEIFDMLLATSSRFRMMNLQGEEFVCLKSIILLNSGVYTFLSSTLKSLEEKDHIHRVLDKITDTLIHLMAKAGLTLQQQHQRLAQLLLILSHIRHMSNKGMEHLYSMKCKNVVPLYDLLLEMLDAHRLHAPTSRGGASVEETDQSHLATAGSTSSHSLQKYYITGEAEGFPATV
UniProt O94992: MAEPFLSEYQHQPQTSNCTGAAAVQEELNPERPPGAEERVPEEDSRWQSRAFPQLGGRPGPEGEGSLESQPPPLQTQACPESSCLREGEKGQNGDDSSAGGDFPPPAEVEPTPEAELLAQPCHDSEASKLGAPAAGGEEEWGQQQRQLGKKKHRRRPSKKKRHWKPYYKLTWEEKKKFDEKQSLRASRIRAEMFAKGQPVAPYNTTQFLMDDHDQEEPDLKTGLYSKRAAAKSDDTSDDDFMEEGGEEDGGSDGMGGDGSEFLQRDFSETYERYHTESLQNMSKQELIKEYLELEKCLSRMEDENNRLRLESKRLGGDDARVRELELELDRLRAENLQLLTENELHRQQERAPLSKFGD

binding [1]	binding [2]	Substance
binds		EDG1 protein (Estrogen Down-Regulated Gene 1 protein) (from UniProt O94992 1-359)
	binds	GST-EDG1 (full-length EDG1 in frame with glutathione-S-transferase, from pGEX2T-EDG1), bound to Sepharose (from UniProt O94992 1-359)

Source: patent US6753418
